Results on two molecules are retold here after PMC12428246.

The chains behind the UniProt entries cited, without tags or fusion partners.
UniProt P98175: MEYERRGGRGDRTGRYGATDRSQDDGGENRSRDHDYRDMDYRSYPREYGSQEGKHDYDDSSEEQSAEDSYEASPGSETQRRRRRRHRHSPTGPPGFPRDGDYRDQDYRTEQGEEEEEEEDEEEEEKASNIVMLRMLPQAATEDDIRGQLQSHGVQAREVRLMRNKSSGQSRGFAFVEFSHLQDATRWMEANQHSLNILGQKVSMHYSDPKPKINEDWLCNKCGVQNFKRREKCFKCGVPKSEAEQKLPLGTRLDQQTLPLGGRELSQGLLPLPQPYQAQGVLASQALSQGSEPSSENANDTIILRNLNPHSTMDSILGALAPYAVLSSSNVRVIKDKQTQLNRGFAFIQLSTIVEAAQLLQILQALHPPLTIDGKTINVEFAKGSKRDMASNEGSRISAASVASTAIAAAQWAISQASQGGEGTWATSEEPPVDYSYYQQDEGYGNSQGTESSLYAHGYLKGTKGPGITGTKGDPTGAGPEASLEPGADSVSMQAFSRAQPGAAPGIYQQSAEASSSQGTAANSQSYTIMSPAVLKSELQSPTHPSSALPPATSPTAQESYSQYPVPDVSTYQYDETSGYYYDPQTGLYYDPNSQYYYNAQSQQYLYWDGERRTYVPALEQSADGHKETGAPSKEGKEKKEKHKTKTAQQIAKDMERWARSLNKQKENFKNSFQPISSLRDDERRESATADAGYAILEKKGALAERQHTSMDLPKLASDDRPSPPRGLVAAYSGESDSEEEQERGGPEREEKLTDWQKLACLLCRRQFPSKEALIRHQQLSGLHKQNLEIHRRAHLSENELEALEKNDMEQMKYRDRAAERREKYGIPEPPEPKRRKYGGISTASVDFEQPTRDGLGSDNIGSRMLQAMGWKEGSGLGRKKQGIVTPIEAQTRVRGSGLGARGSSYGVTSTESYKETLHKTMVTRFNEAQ

Assay [1] addresses T1, MP60, 60-amino-acid micropeptide encoded by LINC01138 (ENST00000614292), Flag knock-in (human (endogenous in 293T)).
T1 sequence: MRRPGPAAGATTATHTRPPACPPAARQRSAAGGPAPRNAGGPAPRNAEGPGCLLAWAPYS
The assay is described as follows: co-IP; cell lysates in IP Lysis Buffer, primary antibody (anti-Flag or anti-RBM10) overnight at 4 °C, Protein A agarose beads 2 h at 4 °C, three washes, immunoblot. A general note: Immunoblotting shows a protein as a band on a membrane.

In assay [2] the target is RNA-binding motif protein 10 (RBM10) (human (endogenous in 293T)) (UniProt P98175). Described as above.

These are yes or no findings as the source states them, for the method shown. In cells and extracts the contact can be indirect. Some results given as binding are weak or reduced against the parent protein; the word gives no strength. Where a sequence is shown, tags or fusion partners need not be part of it.

For “RNA-binding motif protein 10 (RBM10) (from UniProt P98175 1-930)”, the binding result in assay [1] is “binds”.

B1: MP60, 60-amino-acid micropeptide encoded by LINC01138 (ENST00000614292), Flag knock-in (peptide)
chain: T1 sequence
Turning to B1, the binding result in assay [2] was “binds”.
